For four substances, binding results are on record in article PMC11161652, “ASXLs binding to the PHD2/3 fingers of MLL4 provides a mechanism for the recruitment of BAP1 to active enhancers” (Nature Communications, 2024).

Chains of the proteins cited; added tags and fusions are not shown.
UniProt Q76L83: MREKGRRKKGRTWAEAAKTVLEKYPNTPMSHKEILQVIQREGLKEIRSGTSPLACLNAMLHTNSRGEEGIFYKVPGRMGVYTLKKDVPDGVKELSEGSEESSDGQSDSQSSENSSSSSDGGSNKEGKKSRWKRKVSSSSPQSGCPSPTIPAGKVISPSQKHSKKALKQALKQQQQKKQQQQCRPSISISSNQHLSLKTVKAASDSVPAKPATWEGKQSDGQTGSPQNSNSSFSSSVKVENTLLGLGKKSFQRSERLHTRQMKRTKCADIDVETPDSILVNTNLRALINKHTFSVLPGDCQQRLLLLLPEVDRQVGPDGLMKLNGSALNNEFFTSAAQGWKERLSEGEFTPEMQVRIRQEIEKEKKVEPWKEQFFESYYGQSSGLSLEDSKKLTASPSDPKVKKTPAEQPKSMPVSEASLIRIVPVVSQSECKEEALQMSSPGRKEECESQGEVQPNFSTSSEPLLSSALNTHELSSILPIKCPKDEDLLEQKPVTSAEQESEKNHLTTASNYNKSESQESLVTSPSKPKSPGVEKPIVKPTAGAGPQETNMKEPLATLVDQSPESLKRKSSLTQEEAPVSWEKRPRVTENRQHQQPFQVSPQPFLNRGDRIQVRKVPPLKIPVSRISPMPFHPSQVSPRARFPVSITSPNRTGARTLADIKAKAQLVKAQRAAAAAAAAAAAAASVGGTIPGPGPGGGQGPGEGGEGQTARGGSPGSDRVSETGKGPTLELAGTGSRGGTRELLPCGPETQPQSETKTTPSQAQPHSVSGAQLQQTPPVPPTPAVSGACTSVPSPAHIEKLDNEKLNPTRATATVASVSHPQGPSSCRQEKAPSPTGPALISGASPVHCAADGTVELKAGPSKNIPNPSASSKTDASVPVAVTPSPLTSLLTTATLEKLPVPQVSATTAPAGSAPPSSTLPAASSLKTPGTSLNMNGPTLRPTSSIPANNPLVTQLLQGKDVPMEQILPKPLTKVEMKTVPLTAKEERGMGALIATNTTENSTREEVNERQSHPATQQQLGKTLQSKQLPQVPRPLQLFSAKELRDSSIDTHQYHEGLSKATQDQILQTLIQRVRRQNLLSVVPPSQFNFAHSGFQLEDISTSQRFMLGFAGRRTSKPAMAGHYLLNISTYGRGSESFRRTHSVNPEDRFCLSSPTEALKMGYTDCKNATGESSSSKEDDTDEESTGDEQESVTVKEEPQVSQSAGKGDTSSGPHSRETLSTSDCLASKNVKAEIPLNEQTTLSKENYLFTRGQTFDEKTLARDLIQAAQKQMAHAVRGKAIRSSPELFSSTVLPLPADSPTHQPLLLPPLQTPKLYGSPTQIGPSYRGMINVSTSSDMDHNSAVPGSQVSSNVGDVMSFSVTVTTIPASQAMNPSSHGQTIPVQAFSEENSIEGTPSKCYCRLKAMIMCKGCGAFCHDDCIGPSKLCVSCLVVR
UniProt Q14686: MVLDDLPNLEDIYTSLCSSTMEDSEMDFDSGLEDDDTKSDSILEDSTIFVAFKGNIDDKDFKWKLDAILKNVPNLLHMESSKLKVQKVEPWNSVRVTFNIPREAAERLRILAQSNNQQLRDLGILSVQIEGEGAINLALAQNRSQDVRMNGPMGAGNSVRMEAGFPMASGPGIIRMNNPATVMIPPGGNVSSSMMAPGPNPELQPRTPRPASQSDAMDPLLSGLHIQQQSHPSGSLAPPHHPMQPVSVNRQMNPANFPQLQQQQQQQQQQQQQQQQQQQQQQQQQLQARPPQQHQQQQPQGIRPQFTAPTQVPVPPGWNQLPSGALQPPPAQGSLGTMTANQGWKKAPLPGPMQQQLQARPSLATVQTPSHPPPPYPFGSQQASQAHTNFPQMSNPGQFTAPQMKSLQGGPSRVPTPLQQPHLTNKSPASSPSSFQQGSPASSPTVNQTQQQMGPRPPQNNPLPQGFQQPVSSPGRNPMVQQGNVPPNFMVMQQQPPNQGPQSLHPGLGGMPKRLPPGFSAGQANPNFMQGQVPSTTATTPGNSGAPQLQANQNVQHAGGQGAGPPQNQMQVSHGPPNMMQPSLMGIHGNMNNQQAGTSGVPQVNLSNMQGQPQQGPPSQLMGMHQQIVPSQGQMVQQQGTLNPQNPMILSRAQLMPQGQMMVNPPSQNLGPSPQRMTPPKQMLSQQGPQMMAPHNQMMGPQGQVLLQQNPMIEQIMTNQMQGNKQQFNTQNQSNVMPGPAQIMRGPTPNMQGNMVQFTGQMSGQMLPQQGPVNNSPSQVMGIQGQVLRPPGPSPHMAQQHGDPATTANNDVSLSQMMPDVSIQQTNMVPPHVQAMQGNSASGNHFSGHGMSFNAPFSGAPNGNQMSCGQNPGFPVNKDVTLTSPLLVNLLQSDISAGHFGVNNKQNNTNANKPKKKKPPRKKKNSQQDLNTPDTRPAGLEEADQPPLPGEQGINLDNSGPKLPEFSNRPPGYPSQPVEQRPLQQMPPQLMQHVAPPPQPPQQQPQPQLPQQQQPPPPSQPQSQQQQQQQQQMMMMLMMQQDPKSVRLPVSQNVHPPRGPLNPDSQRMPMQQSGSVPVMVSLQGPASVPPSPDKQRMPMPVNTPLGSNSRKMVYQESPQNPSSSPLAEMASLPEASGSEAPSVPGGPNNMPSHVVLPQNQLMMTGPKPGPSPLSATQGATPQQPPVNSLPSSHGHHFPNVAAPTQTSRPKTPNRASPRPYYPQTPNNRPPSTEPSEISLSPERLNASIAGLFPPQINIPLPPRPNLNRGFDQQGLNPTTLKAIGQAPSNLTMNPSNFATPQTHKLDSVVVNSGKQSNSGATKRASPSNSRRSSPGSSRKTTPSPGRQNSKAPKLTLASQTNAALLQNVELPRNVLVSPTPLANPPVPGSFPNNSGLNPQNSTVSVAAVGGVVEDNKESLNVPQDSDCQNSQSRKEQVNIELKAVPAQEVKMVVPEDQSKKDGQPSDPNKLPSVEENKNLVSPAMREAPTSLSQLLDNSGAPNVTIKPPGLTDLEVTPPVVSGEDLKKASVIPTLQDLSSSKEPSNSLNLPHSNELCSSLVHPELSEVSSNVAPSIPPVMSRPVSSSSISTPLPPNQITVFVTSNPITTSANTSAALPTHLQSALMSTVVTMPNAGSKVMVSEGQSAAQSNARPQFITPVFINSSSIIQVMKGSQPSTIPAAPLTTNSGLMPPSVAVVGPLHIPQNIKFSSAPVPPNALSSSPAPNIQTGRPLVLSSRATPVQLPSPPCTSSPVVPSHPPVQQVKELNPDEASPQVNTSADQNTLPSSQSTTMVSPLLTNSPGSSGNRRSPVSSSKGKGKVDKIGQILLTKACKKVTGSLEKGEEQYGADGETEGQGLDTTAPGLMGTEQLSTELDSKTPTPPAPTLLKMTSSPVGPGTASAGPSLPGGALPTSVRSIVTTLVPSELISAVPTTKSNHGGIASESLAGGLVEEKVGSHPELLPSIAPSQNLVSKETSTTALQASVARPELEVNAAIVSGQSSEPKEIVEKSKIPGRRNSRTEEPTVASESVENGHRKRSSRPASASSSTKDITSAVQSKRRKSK
UniProt Q9UBL3: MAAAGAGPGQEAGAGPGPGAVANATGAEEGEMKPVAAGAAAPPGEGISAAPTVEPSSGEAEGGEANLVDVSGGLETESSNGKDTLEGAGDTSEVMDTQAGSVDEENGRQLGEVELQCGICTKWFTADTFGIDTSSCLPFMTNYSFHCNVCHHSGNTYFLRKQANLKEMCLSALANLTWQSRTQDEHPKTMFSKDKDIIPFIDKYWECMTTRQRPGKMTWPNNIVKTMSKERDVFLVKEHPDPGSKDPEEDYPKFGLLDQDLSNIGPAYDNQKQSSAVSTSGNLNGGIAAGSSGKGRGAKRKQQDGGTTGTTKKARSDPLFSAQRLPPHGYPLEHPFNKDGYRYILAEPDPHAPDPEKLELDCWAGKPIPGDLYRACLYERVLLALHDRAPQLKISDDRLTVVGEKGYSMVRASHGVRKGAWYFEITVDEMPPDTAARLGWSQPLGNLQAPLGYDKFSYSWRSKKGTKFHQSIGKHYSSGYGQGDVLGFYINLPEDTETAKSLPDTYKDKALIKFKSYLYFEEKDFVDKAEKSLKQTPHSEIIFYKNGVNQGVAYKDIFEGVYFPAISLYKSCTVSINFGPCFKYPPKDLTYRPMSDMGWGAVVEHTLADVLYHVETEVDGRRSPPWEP
UniProt Q6ZW49: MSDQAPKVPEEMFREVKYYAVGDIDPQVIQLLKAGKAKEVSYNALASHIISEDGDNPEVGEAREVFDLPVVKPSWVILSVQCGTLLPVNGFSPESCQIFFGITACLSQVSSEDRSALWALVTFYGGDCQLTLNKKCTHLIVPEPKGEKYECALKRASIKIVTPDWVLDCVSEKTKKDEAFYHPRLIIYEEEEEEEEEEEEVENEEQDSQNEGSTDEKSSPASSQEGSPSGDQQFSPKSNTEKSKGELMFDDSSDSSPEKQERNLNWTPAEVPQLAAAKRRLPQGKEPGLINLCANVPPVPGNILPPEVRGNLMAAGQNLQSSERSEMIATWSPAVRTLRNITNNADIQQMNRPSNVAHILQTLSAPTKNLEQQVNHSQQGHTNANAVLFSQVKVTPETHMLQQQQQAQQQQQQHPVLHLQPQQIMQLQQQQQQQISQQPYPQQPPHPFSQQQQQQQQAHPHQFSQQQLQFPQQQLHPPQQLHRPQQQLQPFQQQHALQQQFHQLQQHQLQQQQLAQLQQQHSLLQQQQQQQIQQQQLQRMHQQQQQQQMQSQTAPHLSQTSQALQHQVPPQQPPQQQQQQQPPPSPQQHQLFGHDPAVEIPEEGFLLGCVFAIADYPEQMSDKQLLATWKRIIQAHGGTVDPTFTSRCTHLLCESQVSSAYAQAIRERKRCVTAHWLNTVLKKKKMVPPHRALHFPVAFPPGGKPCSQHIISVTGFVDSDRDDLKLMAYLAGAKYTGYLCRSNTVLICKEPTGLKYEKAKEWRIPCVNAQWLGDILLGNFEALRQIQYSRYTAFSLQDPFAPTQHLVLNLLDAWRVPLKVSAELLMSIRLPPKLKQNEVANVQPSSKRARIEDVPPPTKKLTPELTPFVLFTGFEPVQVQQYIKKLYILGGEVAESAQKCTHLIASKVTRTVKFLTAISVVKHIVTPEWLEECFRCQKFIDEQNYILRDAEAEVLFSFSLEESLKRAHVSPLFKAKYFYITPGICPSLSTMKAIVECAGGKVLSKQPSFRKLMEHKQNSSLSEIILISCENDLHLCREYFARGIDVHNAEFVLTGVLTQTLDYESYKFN
UniProt Q15291: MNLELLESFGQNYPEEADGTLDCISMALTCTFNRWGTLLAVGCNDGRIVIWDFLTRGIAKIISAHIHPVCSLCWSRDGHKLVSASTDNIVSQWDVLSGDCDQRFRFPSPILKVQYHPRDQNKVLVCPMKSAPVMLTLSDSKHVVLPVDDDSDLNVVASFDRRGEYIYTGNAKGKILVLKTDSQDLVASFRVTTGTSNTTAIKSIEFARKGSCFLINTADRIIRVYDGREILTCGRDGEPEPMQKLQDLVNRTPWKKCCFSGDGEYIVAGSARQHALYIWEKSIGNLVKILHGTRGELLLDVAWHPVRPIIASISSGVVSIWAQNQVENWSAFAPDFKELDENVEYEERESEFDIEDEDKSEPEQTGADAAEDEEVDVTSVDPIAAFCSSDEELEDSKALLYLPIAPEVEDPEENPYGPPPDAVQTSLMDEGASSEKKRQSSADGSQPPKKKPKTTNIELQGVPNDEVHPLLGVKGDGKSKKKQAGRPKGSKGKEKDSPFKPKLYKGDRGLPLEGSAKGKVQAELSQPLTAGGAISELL

Results are given in words; binding and its absence hold for the method and conditions named. Binding seen in cells or lysates may run through a third protein. A yes stands for co-enrichment or nearness to the bait. Other partners may have been found.

The assay concerns the target 3Flag-2Strep-tagged ASXL2, full length wild type (human) (UniProt Q76L83). As to the kind of experiment: affinity purification with mass spectrometry; tandem affinity purification (anti-FLAG, 3xFLAG peptide elution, then Strep-Tactin, biotin elution) of tagged ASXL2 WT or ΔMBH from K562 nuclear extracts; fractions analysed by western blot and mass spectrometry. (In general: In western blotting, separated proteins are transferred to a membrane and probed.)
For NCOA6 (from UniProt Q14686 1-2063), the binding entry was “binds”. For the substance ASH2L (from UniProt Q9UBL3 1-628), the binding entry was “binds”.

With “PAXIP1/PTIP (from UniProt Q6ZW49 1-1069)”, the binding entry is on record as “binds”. The entry for RBBP5 (from UniProt Q15291 1-538) is “binds”.
